# Measurements published in PubChem BioAssay AID504834 (National Center for Advancing Translational Sciences (NCATS), 2011).
# Among all 320,000 compounds or so, about 22,000 (6.9%) were called active. The shares of active, inactive and inconclusive entries below differ from those in the screen. Calls follow the shape of the dose curve; as a rule, active = well fitted inhibition curve with a large enough effect; inconclusive = small, poorly fitted or top-dose-only effect, or another doubt; inactive = no such curve, though single readings can be large or run the other way. Potencies beside an inconclusive call are fits to weak or partial responses and may not hold up.
# Assay: Primary qHTS for delayed death inhibitors of the malarial parasite plastid, 96 hour incubation
# Conditions: P. falciparum luciferase reporter growth; series mostly up to 28.7 µM; activity change, negative = inhibition: at the top concentration
# In short: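 96 h incubation, 37 C, 5% CO2, of luciferase-reporter P. falciparum-infected RBCs (2% hematocrit, 0.05% parasitemia final) with test compounds; endpoint luminescence.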
# % is scaled to controls: 0 for no effect and ±100 for the full control effect; potency is read from the fitted curve at half-maximal effect.
SMILES,Potency,"activity change, negative = inhibition"
c1ccc(-c2nnc(CSc3nnc(-c4ccncc4)n3Cc3ccco3)o2)cc1,"inconclusive: 18.5 µM [inhibitor, single point]",
C=CCn1c(SCCOc2ccc(OC)cc2)nnc1C(C)NC(=O)Cc1ccc(OC)cc1 (centres undefined),"inconclusive: 18.5 µM [inhibitor, single point]",
O=c1c2c(nc3cc(-c4ccc(F)cc4)[nH]n13)CCCC2,,inactive: 29.5%
COc1ccc(Nc2cc(C(=O)NCc3ccccn3)c3ccccc3n2)c(OC)c1,active: 13.1 µM,
COc1ccccc1/C=N/NC(=O)c1cccc2ccccc12,"inconclusive: 13.1 µM [inhibitor, single point]",
Cc1ccccc1C(O)(Cc1ccccc1)C1CN2CCC1CC2 (centres undefined),active: 10.4 µM,
Cc1ccc2c(c1)N(CC(=O)N1CCCCCC1)C(=O)C(C)O2 (centres undefined),,inactive: 29%
C/C(=N\NP(=S)(c1ccccc1)c1ccccc1)c1ccc(O)cc1O,"inconclusive: 18.5 µM [inhibitor, single point]",
N#Cc1ccccc1S(=O)(=O)N1CCN(C(=O)C2COc3ccccc3O2)CC1 (centres undefined),"inconclusive: 18.5 µM [inhibitor, single point]",
CC(=O)NC1CC2CCCC(C1)N2CC(=O)N1CCCc2ccccc21 (centres undefined),,inactive: -28.3%
NC(=S)N/N=C\c1ccc(-c2cccc(Cl)c2Cl)o1,"inconclusive: 18.5 µM [inhibitor, single point]",
CCOC(=O)c1c(N)n(-c2ccc(N)cc2)c2nc3ccccc3nc12,"inconclusive: 13.1 µM [inhibitor, single point]",
S=C(NC1CCCCC1)N1CCN(Cc2ccccc2)CC1,"inconclusive: 14.7 µM [inhibitor, partial curve, poor fit]",
O=C(c1cccc(S(=O)(=O)NCc2ccccc2)c1)N1CCN(c2ccc(F)cc2)CC1,"inconclusive: 18.5 µM [inhibitor, single point]",
CC(C)CCNC(=O)Cn1c(=O)oc2cc(S(=O)(=O)N3CC(C)CC(C)C3)ccc21 (centres undefined),"inconclusive: 8.28 µM [inhibitor, partial curve, poor fit]",
Cc1onc(-c2ccccc2)c1C(=O)N/N=C/c1ccco1,,inactive: 21.4%
Cc1cc(=O)n2c3ccccc3n(CC(O)CN3CCCC3)c2c1C#N (centres undefined),"inconclusive: 14.7 µM [inhibitor, single point]",
COc1ccc(-c2nnc(CSc3nc4ccccc4c(=O)n3C)o2)cc1OC,"inconclusive: 18.5 µM [inhibitor, single point]",
O=C(CNS(=O)(=O)c1ccc(C(=O)N2CCOCC2)cc1)N1CCOCC1,"inconclusive: 16.5 µM [inhibitor, single point]",
COCCCNC(=S)NNC(=O)c1csc(C)n1,"inconclusive: 0.828 µM [inhibitor, full curve]",
CCOC(=O)C(=CNc1ccc(N2CCOCC2)cc1)C(=O)OCC,"inconclusive: 18.5 µM [inhibitor, partial curve, poor fit]",
Cc1cc(C(=O)Nc2cccc3ccccc23)co1,"inconclusive: 13.1 µM [inhibitor, single point]",

# Pulled by compound from the list above (2):
SMILES,Potency,"activity change, negative = inhibition"
c1ccc(-c2nnc(CSc3nnc(-c4ccncc4)n3Cc3ccco3)o2)cc1,"inconclusive: 18.5 µM [inhibitor, single point]",
NC(=S)N/N=C\c1ccc(-c2cccc(Cl)c2Cl)o1,"inconclusive: 18.5 µM [inhibitor, single point]",

# (further entries)

SMILES,Potency,"activity change, negative = inhibition"
COc1ccc(C(=O)NCc2ccccc2)cc1Br,"inconclusive: 10.4 µM [inhibitor, single point]",
CCOC(=O)N1CCC(C(=O)NNC(=O)c2ccc(Cl)cc2Cl)CC1,active: 10.4 µM,
CC(=O)Nc1ccc(N2C(=O)CC(N3CCN(Cc4ccc5c(c4)OCO5)CC3)C2=O)cc1 (centres undefined),"inconclusive: 11.7 µM [inhibitor, single point]",
O=[N+]([O-])c1ccc(Sc2cccc[n+]2[O-])c2nonc12,active: 0.828 µM,
COc1ccc(C(=O)N2CCN(Cc3ccccc3C(F)(F)F)CC2)cc1,,inactive: -12.7%
CCN(C(=O)CSc1nc2ccccc2c(=O)n1CCOC)C1CCS(=O)(=O)C1 (centres undefined),,inactive: 2.6% [at 5.75 µM]
COc1ccc(CCNC(=O)c2ccc(SC)cc2OC)cc1,active: 2.62 µM,
COc1ccc2c(c1)C(c1cccs1)=NNC(c1cccnc1)=N2,,inactive: 15.7%
O=[N+]([O-])c1ccc(CSc2nc3ccccc3[nH]2)cc1,"inconclusive: 11.7 µM [inhibitor, partial curve, poor fit]",
Cc1ccccc1-n1c(SCC(=O)Nc2cccc3ccccc23)nc(O)cc1=O,"inconclusive: 1.31 µM [inhibitor, full curve]",
O=C(O)C(Cc1c[nH]c2ccccc12)NS(=O)(=O)c1cccc(Cl)c1Cl (centres undefined),,inactive: 5.61%
CCOC(=O)C1CCCN(Cc2nc(Cc3cccc(F)c3)no2)C1 (centres undefined),"inconclusive: 18.5 µM [inhibitor, single point]",
Cc1c(Cl)cccc1NC(=S)N(CCCN1CCOCC1)Cc1ccco1,,inactive: 1.27%
O=S(Cc1ccc(Br)cc1)Cc1nnc(SCc2ccc(Cl)cc2)n1-c1ccccc1 (centres undefined),"inconclusive: 18.5 µM [inhibitor, single point]",
COC(=O)Cc1ccc(NC(=O)c2ccc(NC(=O)c3ccco3)cc2)cc1,"inconclusive: 16.5 µM [inhibitor, single point]",
c1ccc(Cn2c(Sc3nnnn3-c3ccccc3)nnc2-c2ccccc2)cc1,"inconclusive: 8.28 µM [inhibitor, partial curve]",
CCOC(=O)CSc1nc2ccccc2c(=O)n1CC1CCCO1 (centres undefined),"inconclusive: 13.1 µM [inhibitor, single point]",
O=C(Nc1ccccc1Cl)C1CCCN(c2ncnc3c2nc2n3CCCCC2)C1 (centres undefined),active: 6.57 µM,
CC(C)C[C@H](NC(=O)c1nc[nH]c1C(=O)NC(c1ccccc1)c1ccccc1)C(=O)OC(C)(C)C,"inconclusive: 0.928 µM [inhibitor, full curve, poor fit]",
Cc1ncc(CO)c(/C=N/NC(=S)Nc2ccc(Cl)c(Cl)c2)c1O,"inconclusive: 16.5 µM [inhibitor, single point]",
O=C(CNC(=O)c1ccccc1)N/N=C/c1cn[nH]c1-c1ccccc1,"inconclusive: 4.15 µM [inhibitor, single point]",
CN(C)S(=O)(=O)c1cccc(NC(=O)c2cccc(S(=O)(=O)N3CCCCCC3)c2)c1,active: 4.65 µM,
